PubChem BioAssay AID1259308 | NCATS – 2017
This is an unselected part of about 59,000 reagents. Over the whole deposit, about 1,510 (2.6%) got an active call. 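Calls use total luciferase alone and ignore viability, so some active siRNAs may act by altering cell number.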 Reagents against one gene are numbered here. Not all columns of the deposit are shown.

Screen: 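Genes whose loss raises luciferase production in HEK293 cells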 (primary screen)
Cell system: human HEK293 embryonic kidney cells stably expressing firefly luciferase (HEK-CMV-Luc2-Hygro)
Reagents: single siRNA against human genes, 0.8 pmol siRNA per well
Time to read-out: 72 h
Measurement: 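Reporter luminescence and viable-cell signal on separate replicate plates, given as percent of non-targeting control and median/MAD z-scores, plus per-cell luciferase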
Reading the numbers: total luciferase, z-score: higher = more reporter protein produced
Active means: 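Active when the median/MAD z-score for overall luciferase is greater than 3; a gene was taken forward for validation with new siRNAs if at least two of its three siRNAs passed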
Calls: active = raised luciferase; inactive = no rise

Knock-down of SMAD1 (SMAD family member 1) #1 resulted in: total luciferase, z-score 0.196; inactive.
SMAD1 (SMAD family member 1) #2 scored total luciferase, z-score -1.66; inactive.
With knock-down of SMAD1 (SMAD family member 1) #3, the screen gave total luciferase, z-score 1.25; inactive.
For FOXS1 (forkhead box S1) #1, the values are total luciferase, z-score 1.34; inactive.
With knock-down of FOXS1 (forkhead box S1) #2, the record shows total luciferase, z-score 1.45; inactive.
FOXS1 (forkhead box S1) #3 scored total luciferase, z-score -0.0626; inactive.

2 consecutive entries already listed, for reference:
FOXS1 (forkhead box S1) #1: total luciferase, z-score = 1.34; activity call = inactive
FOXS1 (forkhead box S1) #2: total luciferase, z-score = 1.45; activity call = inactive

Next results follow.
Depletion of RTL10 (retrotransposon Gag like 10) #1 gave: total luciferase, z-score 0.797; inactive.
RTL10 (retrotransposon Gag like 10) #2 showed total luciferase, z-score 0.272; inactive.
Silencing of RTL10 (retrotransposon Gag like 10) #3 came out at: total luciferase, z-score -1.53; inactive.
Silencing of AHCYL1 (adenosylhomocysteinase like 1) #1 came out at: total luciferase, z-score 0.311; inactive.
Depletion of AHCYL1 (adenosylhomocysteinase like 1) #2 gave: total luciferase, z-score -0.612; inactive.
AHCYL1 (adenosylhomocysteinase like 1) #3 gave total luciferase, z-score -0.13; inactive.
